Measurements reported in PubChem BioAssay AID1259254 (NCATS, 2017)
Assay: 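Gene knock-downs that lead to re-replication, shown by excess G2 DNA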 (primary screen). System: human HCT116 colorectal cancer cells. Reagent: single siRNA against human genes. Timing: 3 days. Read-out: 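Nuclei stained with Hoechst and imaged; cell-cycle phase assigned by DNA content; G2 share scaled per plate, non-targeting siRNA 0%, GMNN siRNA 100%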. Reading the numbers: G2 robust z-score and G2 cells, % of GMNN control: higher = more G2 cells, more excess DNA replication; raw share of cells in G2: higher = larger share of cells with G2 DNA content. Hit rule: 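An siRNA counts as active if its G2 robust z-score lies at least 5 MADs above the screen median; here such calls match roughly 38% of GMNN control or more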.
Here is a random part of about 59,000 reagents. About 1,550 of all reagents (2.6%) count as active. 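G2 share is only a proxy for re-replication; each gene was hit by three separate siRNAs, and active genes were retested.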 The raw values are shown without normalisation. Reagents against one gene are numbered here. Not stated in the record: the amount of reagent.

| gene symbol | reagent | G2 robust z-score | G2 cells, % of GMNN control | raw share of cells in G2 (%) | Outcome |
| --- | --- | --- | --- | --- | --- |
| EMC2 | 1 | -0.569 | -1.04 | 4.81 | inactive |
| EMC2 | 2 | -0.334 | 0.616 | 3.41 | inactive |
| EMC2 | 3 | 0.482 | 6.36 | 7.33 | inactive |
| TXNDC2 | 1 | -0.508 | -0.608 | 3.97 | inactive |
| TXNDC2 | 2 | 2.8 | 22.7 | 13.2 | inactive |
| TXNDC2 | 3 | 6.63 | 49.6 | 26.1 | active |
| OR11A1 | 1 | 1.76 | 15.3 | 10.2 | inactive |
| OR11A1 | 2 | 2.55 | 20.9 | 13 | inactive |
| OR11A1 | 3 | 1.64 | 14.5 | 8.38 | inactive |
| CYP39A1 | 1 | 1.47 | 13.3 | 12 | inactive |
| CYP39A1 | 2 | 3.43 | 27.1 | 14.2 | inactive |
| CYP39A1 | 3 | 0.115 | 3.77 | 5.25 | inactive |
| LTB | 1 | 0.0934 | 3.62 | 4.39 | inactive |
| LTB | 2 | 1.93 | 16.5 | 12 | inactive |
| LTB | 3 | -0.815 | -2.77 | 4.29 | inactive |
| PTPRN | 1 | 0.409 | 5.85 | 6.7 | inactive |
| PTPRN | 2 | -0.442 | -0.144 | 4.26 | inactive |
| PTPRN | 3 | 0.106 | 3.72 | 4.62 | inactive |
| MARCHF11 | 1 | 0.191 | 4.31 | 5.29 | inactive |
| MARCHF11 | 2 | 6.88 | 51.4 | 22.9 | active |
| MARCHF11 | 3 | -0.818 | -2.79 | 2.17 | inactive |
| CAMSAP2 | 1 | -1.27 | -5.99 | 2.64 | inactive |
| CAMSAP2 | 2 | 1.37 | 12.6 | 9.34 | inactive |
| CAMSAP2 | 3 | -0.375 | 0.33 | 3.3 | inactive |
| SRRT | 1 | 0.751 | 8.25 | 6.56 | inactive |
| SRRT | 2 | 5.8 | 43.8 | 22.7 | active |
| SRRT | 3 | 0.391 | 5.72 | 5.08 | inactive |
| IGFL4 | 1 | -0.516 | -0.665 | 2.89 | inactive |
| IGFL4 | 2 | -0.593 | -1.2 | 3.16 | inactive |
| IGFL4 | 3 | -0.301 | 0.847 | 3.74 | inactive |
| IGFL4 | 4 | 0.365 | 5.54 | 6.27 | inactive |
| IGFL4 | 5 | -0.289 | 0.933 | 3.53 | inactive |
| IGFL4 | 6 | 0.244 | 4.68 | 4.88 | inactive |
| TASL | 1 | -0.152 | 1.9 | 5.23 | inactive |
| TASL | 2 | 0.558 | 6.89 | 7.32 | inactive |
| TASL | 3 | 4.41 | 34 | 11.7 | inactive |
| RNF135 | 1 | 0.265 | 4.83 | 7.44 | inactive |
| RNF135 | 2 | 4.26 | 33 | 17 | inactive |
| RNF135 | 3 | -0.932 | -3.59 | 2.89 | inactive |
| LSM5 | 1 | -0.972 | -3.87 | 2.72 | inactive |
| LSM5 | 2 | 0.521 | 6.63 | 6.39 | inactive |
| LSM5 | 3 | 0.319 | 5.21 | 8.53 | inactive |
| CRYAA | 1 | -0.94 | -3.64 | 2.84 | inactive |
| CRYAA | 2 | 0.0532 | 3.34 | 6.15 | inactive |
| CRYAA | 3 | 1 | 10 | 8.65 | inactive |
| MBNL1 | 1 | -1.85 | -10 | 1.49 | inactive |
| MBNL1 | 2 | -0.834 | -2.9 | 4.24 | inactive |
| MBNL1 | 3 | -0.253 | 1.18 | 3.59 | inactive |

Limited to “G2 robust z-score”, for 6 of the entries above:
OR11A1 #1: 1.76
OR11A1 #2: 2.55
OR11A1 #3: 1.64
CYP39A1 #1: 1.47
CYP39A1 #2: 3.43
CYP39A1 #3: 0.115
